These results are taken from PMC8035140.

By UniProt entry, the sequences of proteins in these tests, tags left out.
UniProt Q9ULE0: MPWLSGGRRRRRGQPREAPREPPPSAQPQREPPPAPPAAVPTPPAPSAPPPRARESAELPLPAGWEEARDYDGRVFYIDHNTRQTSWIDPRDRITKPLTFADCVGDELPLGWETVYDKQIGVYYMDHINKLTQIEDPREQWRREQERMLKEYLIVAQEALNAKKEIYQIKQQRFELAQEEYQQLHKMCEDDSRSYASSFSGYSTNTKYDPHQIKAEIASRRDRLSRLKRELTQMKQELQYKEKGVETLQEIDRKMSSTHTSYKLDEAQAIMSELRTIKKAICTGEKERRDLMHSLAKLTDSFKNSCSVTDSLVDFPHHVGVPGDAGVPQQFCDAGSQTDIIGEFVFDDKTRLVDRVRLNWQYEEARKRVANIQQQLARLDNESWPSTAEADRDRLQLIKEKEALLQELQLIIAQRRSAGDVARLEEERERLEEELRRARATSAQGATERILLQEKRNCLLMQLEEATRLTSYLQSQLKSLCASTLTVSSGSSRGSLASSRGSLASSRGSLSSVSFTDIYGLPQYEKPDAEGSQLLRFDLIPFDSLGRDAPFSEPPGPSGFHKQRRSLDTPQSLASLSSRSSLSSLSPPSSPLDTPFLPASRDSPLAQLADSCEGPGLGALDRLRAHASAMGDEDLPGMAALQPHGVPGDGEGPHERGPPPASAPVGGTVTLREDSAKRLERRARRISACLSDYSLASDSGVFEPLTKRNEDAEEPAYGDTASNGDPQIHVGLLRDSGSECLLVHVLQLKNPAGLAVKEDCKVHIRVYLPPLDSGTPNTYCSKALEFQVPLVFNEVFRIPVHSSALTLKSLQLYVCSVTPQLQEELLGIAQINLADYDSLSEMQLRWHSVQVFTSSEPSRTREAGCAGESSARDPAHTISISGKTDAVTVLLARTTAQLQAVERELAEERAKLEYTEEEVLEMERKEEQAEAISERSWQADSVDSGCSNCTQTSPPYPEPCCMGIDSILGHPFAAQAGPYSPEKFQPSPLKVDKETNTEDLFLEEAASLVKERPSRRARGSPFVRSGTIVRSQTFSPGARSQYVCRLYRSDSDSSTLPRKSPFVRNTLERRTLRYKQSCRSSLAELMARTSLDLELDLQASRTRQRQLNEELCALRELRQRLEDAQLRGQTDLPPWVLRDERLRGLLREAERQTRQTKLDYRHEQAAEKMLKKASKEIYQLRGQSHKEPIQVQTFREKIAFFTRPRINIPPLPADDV

These are yes or no findings as the source states them, for the method shown. In cells and extracts the contact can be indirect. Some entries that bind do so weakly or less than the wild type. For some assays here: Where a sequence is shown, tags or fusion partners need not be part of it.

Experiment [1] has as its target T1, LATS1 transfected into A549 cells (precipitated with anti-FLAG) (UniProt O95835).
T1 sequence: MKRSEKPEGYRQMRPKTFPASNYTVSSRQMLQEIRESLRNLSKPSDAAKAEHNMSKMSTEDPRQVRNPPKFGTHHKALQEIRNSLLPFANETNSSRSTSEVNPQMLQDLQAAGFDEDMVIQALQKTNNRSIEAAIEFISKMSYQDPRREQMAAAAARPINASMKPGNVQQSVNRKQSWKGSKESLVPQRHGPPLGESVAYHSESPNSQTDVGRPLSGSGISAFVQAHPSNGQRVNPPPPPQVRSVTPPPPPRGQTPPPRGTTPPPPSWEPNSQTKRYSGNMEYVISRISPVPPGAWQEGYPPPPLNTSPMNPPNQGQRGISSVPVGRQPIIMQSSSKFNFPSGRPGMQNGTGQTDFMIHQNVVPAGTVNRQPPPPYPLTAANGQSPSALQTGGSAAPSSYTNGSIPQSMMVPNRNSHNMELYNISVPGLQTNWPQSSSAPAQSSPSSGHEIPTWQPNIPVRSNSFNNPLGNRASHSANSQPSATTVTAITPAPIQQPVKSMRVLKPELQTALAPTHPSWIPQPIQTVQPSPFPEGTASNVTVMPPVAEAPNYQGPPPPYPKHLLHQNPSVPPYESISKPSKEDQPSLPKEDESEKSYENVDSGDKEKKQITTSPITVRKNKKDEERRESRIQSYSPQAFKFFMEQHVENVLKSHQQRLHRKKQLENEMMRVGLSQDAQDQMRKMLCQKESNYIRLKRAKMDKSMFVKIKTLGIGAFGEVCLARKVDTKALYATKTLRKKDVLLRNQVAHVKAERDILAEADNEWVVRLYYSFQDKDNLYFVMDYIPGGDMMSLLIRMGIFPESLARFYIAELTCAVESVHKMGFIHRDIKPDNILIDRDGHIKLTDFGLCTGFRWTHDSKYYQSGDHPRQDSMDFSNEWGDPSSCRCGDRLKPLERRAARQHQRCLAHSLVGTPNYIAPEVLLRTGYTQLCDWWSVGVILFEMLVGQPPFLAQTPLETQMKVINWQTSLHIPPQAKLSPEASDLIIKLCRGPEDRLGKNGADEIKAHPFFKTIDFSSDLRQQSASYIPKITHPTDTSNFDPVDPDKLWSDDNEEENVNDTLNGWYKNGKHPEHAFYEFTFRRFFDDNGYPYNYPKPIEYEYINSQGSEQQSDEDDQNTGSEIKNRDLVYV
Briefly: co-IP; A549 cells, with siRNA-WBP2 (5 and 10 pmol); anti-FLAG immunoprecipitation followed by anti-WWC3 immunoblotting. A general note: Immunoblotting shows a protein as a band on a membrane.

Experiment [2] has as its target GFP-WWC3 (WW and C2 domain-containing protein-3), wild type (UniProt Q9ULE0). As to the kind of experiment: co-IP; H1299 cells transfected, lysed after 48 h; GFP monoclonal antibody for precipitation, western blot; also with WBP2 plasmid (1 and 2.5 ug) in a dose gradient or siRNA-LATS1.
In experiment [3] the target is GST-WWC3 (WWC3 protein coupled to a GST label) (UniProt Q9ULE0). As to the kind of experiment: pull-down; purified GST-WWC3 on glutathione sepharose beads incubated with lysate of H1299 cells transfected with Myc-WBP2, 4 C; western blot and Coomassie staining; only the target purified.
For experiment [4], the target named is WWC3, endogenous in A549 (human (endogenous in A549)) (UniProt Q9ULE0). Briefly: co-IP; A549 cells, with increasing LATS1 transfected; precipitating antibody not stated.

As to “WWC3, endogenous in A549 (from UniProt Q9ULE0 1-1216)”, the binding entry in experiment [1] is listed as “binds”.

B1: WW domain binding protein-2 (WBP2), endogenous in H1299 (protein, UniProt Q969T9 1-261)
chain: MALNKNHSEGGGVIVNNTESILMSYDHVELTFNDMKNVPEAFKGTKKGTVYLTPYRVIFLSKGKDAMQSFMMPFYLMKDCEIKQPVFGANYIKGTVKAEAGGGWEGSASYKLTFTAGGAIEFGQRMLQVASQASRGEVPSGAYGYSYMPSGAYVYPPPVANGMYPCPPGYPYPPPPPEFYPGPPMMDGAMGYVQPPPPPYPGPMEPPVSGPDVPSTPAAEAKAAEAAASAYYNPGNPHNVYMPTSQPPPPPYYPPEDKKTQ
As for B1, the binding entry in experiment [2] was “binds”.

B2: Myc-WBP2, wild type (protein, UniProt Q969T9 1-261)
chain: MALNKNHSEGGGVIVNNTESILMSYDHVELTFNDMKNVPEAFKGTKKGTVYLTPYRVIFLSKGKDAMQSFMMPFYLMKDCEIKQPVFGANYIKGTVKAEAGGGWEGSASYKLTFTAGGAIEFGQRMLQVASQASRGEVPSGAYGYSYMPSGAYVYPPPVANGMYPCPPGYPYPPPPPEFYPGPPMMDGAMGYVQPPPPPYPGPMEPPVSGPDVPSTPAAEAKAAEAAASAYYNPGNPHNVYMPTSQPPPPPYYPPEDKKTQ
As to B2, the binding result in experiment [2] and in experiment [3] was “binds” each time.

B3: WBP2, endogenous in A549 (protein, UniProt Q969T9 1-261)
chain: MALNKNHSEGGGVIVNNTESILMSYDHVELTFNDMKNVPEAFKGTKKGTVYLTPYRVIFLSKGKDAMQSFMMPFYLMKDCEIKQPVFGANYIKGTVKAEAGGGWEGSASYKLTFTAGGAIEFGQRMLQVASQASRGEVPSGAYGYSYMPSGAYVYPPPVANGMYPCPPGYPYPPPPPEFYPGPPMMDGAMGYVQPPPPPYPGPMEPPVSGPDVPSTPAAEAKAAEAAASAYYNPGNPHNVYMPTSQPPPPPYYPPEDKKTQ
With B3, the binding result in experiment [4] is “binds”.
